# According to US8784897B2, “Methods of therapeutic treatment of eyes” (Revalesio Corporation, priority 2006, dated 2014):
# For at least one compound, name, drawing or mass did not settle the structure.
# Tested on: Brown Norway rats
# Assay: Brown Norway rat ovalbumin sensitization model with Budesonide
# Format: in vivo
compound,measurement,setting,value
CCCC1O[C@@H]2C[C@H]3[C@@H]4CCC5=CC(=O)C=C[C@]5(C)[C@H]4[C@@H](O)C[C@]3(C)[C@]2(C(=O)CO)O1 (stereo partly drawn) [Budesonide],blood level of eotaxin,"6 hours post challenge, Budesonide 750 ug/kg",reduced
same,blood level of eotaxin,"24 hours post challenge, Budesonide 750 ug/kg",reduced
same,total eosinophil count in blood,"challenged animals, relative to normal saline alone, Budesonide 750 μg/Kg, nebulized 7 days",reduced
same,Eosinophil %,"challenged animals, Budesonide 750 ug/kg, nebulized 7 days",did not have a significant effect
same,tidal volume,immediately after the challenge,no change
same,Penh values,"immediately after the ovalbumin challenge, Budesonide 500 and 750 ug/kg",failed to significantly affect
